Assay results published in patent US20190375778A1, “ADENOSINE DERIVATIVES FOR USE IN THE TREATMENT OF CANCER” (NuCana plc, priority 2016, published 2019).
For at least one compound, name, drawing or mass did not settle the structure.

Test system: KG1a leukaemic stem cell compartment (Lin−/CD34+/CD38−/CD123+)
Assay: Leukaemic stem cell compartment in KG1a
Assay type: cell-based
Description: A further comparative analysis of the toxicity of compounds in the KG1a cell line over an extended dose range was carried out, and the relative effect assessed of the compounds on the leukaemic stem cell compartment within the KG1a cell line, across the entire dose range. Thus, experimental tests were performed on certain compounds of the present invention to assess their ability to target cancer stem cells in a leukaemic cell line. The acute myeloid leukaemia (AML) cell line, KG1a, was employed to assess the relative effect of compounds on the stem cell compartment. […]
Cells of the KG1a cell line were maintained in RPMI medium (Invitrogen, Paisley, UK) supplemented with 100 units/ml penicillin, 100 μg/ml streptomycin and 20% foetal calf serum. Cells were subsequently aliquoted (10^5 cells/100 μl) into 96-well plates and were incubated at 37° C. in a humidified 5% carbon dioxide atmosphere for 72 hrs in the presence of nucleoside analogues and their respective nucleotide analogues (known as ProTides) at concentrations that were experimentally determined for each series of compounds. […] Cells were subsequently harvested by centrifugation and were analyzed by flow cytometry using the Annexin V assay. […]
The data obtained in these experiments were evaluated using one way ANOVA. […]

C[C@H](NP(=O)(OC[C@H]1O[C@@H](n2c(Cl)nc3c(N)ncnc32)C(O)C1O)Oc1cccc2ccccc12)C(=O)OCc1ccccc1 (stereo partly drawn) [Compound D, (2S)-Benzyl 2-(((((2R,3S,4R,5R)-5-(6-amino-8-chloro-9H-purin-9-yl)-3,4-dihydroxy-tetrahydrofuran-2-yl)methoxynaphthalene-1-yloxy)phosphoryl)amino)propanoate]
targeting of leukaemic/cancer stem cells in words (KG1a, compared to 8-chloroadenosine (FIG. 2, FIG. 8)): particularly effective preferential targeting of LSCs | proportion of LSCs present after treatment, versus 8-chloroadenosine (concentrations of 1×10^−6 and 5×10^−6 M): statistically significantly reduction in the proportion of LSCs
